Experimental data published in ChEMBL document CHEMBL4513148, “CO-ADD screening of Stellenbosch University (South Africa) compounds”.
This is one part of the list. Potency and affinity values are given separately.

Tested on: Acinetobacter baumannii
Conditions: Concentration 32 ug.mL-1; ASSAY_TEST Inhibition of Bacterial Growth; detection method Absorption (OD600); MEDIA CAMHB; plate type 384well; NBS; CORNING #3640; time 18 hr

Structure (SMILES)	Inhibition
CCCCCCCNC(=O)CCNC(=O)C(O)C(C)(C)C (stereo not drawn)	21.36%
CCCCCCCNC(=S)CCNC(=O)[C@H](O)C(C)(C)CO	24.29%
CC(C)(CO)[C@H](O)C(=O)NCCC(=O)NCc1cn(C[C@H]2O[C@@H](n3ccc(N)nc3=O)[C@H](O)[C@@H]2O)nn1	13.48%
CC(CC(=O)NCCc1ccccc1)NC(=O)[C@H](O)C(C)(C)CO (stereo partly drawn)	11.11%
C#CCNC(=O)[C@H](O)C(C)(C)CO	15.73%
CC(C)(C)C(O)C(=O)NCCC(=O)NCCc1ccccc1 (stereo not drawn)	11.61%
CC(C)(CO)[C@H](O)C(=O)NCCCc1cn(C[C@H]2O[C@@H](n3ccc(N)nc3=O)[C@H](O)[C@@H]2O)nn1	7.83%
CC(C)(COP(=O)(O)O)[C@@H](O)C(=O)NCCC(=O)NCCc1ccccc1	19.51%
CCCCCCCNS(=O)(=O)CCNC(=O)[C@H](O)C(C)(C)CO	20.89%
CCCCCCNNC(=O)CCNC(=O)[C@H](O)C(C)(C)CO	17.22%
CC(C)(CO)[C@@H](O)C(=O)N/C=C/C(=O)NCCc1ccccc1	15.01%
CC(C)(CO)[C@H](O)C(=O)NCCC(=O)OCc1cn(C[C@H]2O[C@@H](n3ccc(N)nc3=O)[C@H](O)[C@@H]2O)nn1	13.94%
CC(C)(CO)[C@@H](O)C(=O)NCCC(=S)NCCc1ccccc1	12.94%
CC(C)(CO)C(O)C(=O)NCCCOP(=O)(O)OCC1OC(n2ccc(N)nc2=O)C(O)C1O (stereo not drawn)	12.12%
CC(C)(CO)[C@@H](O)C(=O)NCCC(=O)NNCc1ccccc1	10.95%
CC(C)(CN)C(O)C(=O)NCCC(=O)NCCc1ccccc1 (stereo not drawn)	20.01%
CC(C)(CO)[C@H](O)C(=O)NCCc1cn(C[C@H]2O[C@@H](n3ccc(N)nc3=O)[C@H](O)[C@@H]2O)nn1	10.71%
CC(C)(CO)[C@H](O)C(=O)NCc1cn(C[C@H]2O[C@@H](n3ccc(N)nc3=O)[C@H](O)[C@@H]2O)nn1	12.88%

Quoted from the listing.
Inhibition with CC(C)(CO)[C@@H](O)C(=O)NCCC(=O)NNCc1ccccc1 is entered as 10.95%
Inhibition with CC(C)(CO)C(O)C(=O)NCCCOP(=O)(O)OCC1OC(n2ccc(N)nc2=O)C(O)C1O (stereo not drawn) is entered as 12.12%
